Reference: PubChem BioAssay AID2685 (National Center for Advancing Translational Sciences (NCATS), 2010)
The list shows a part of the results. The main result of the screen is listed elsewhere. These columns were measured beside it and carry no call. Most of these compounds were active or inconclusive in the main read-out, so they are no random draw. Words in brackets tell the shape of the fitted curve; partial curves, single points and poor fits give uncertain potencies.

Test: qHTS Assay for Lipid Storage Modulators in Drosophila S3 Cells;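 for cell number change: cells counted by Cell Tracker Red CMTPX staining in the red channel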
Conditions: BODIPY lipid droplet fluorescence, 18-24 h; for cell number change: measured here: cell count max response, cells fed with added oleic acid
Outline: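 Drosophila S3 cells loaded with oleic acid (400 uM, as added) and compounds at several concentrations; lipid droplets imaged by 488-nm laser-scanning cytometry, 500–530 nm intensity and object ratio to cell channel. Percent activity normalized to 20 uM Triacsin C.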

[1] = measured here: lipid fluorescence (Fed channel) AC50, cells fed with added oleic acid
[2] = measured here: cell number channel AC50, cells fed with added oleic acid

## CCC(=O)NC(c1ccc(OC)cc1)c1c(O)ccc2ccccc12 (configuration not stated)
  cell number change: -19.7%

## CCOc1ccc(CCNc2ccc3nnc(-c4ccccc4)n3n2)cc1OCC
  cell number change: 28.3%
[1]
  AC50: 3.66 µM [rising, partial curve]

## Cc1cc(C)c(C(=O)COC(=O)CCNS(=O)(=O)c2c(Cl)cccc2Cl)cc1C
  cell number change: -16.5%
[2]
  AC50: 0.00411 µM [falling, full curve, poor fit]

## COc1ccc(/C=N/NC(=O)CO/N=C(\C)c2cccs2)cc1
  cell number change: 1.27%
[1]
  AC50: 1.03 µM [falling, full curve]

## C=CCN1C(=O)C(=O)N(Cc2nc3ccccc3s2)C1=O
  cell number change: 19.7%
[1]
  AC50: 0.398 µM [rising, single point]

## COc1nc(C)nc(NC(=O)NS(=O)(=O)c2ccc(C)cc2)n1
  cell number change: -3.39%
[1]
  AC50: 0.58 µM [falling, full curve, poor fit]

## O=C(OCCNc1nc(-c2ccccc2)nc2ccccc12)c1ccncc1
  cell number change: 1.67%
[1]
  AC50: 1.3 µM [falling, full curve, poor fit]

## CCOP(=O)(OCC)C(NC(=O)Nc1c(C)cc(C)cc1C)c1ccccc1 (configuration not stated)
  cell number change: 8.95%
[1]
  AC50: 0.00517 µM [rising, full curve, poor fit]

## Cn1nnnc1Sc1ccc(C(=O)O)cc1[N+](=O)[O-]
  cell number change: -0.64%

## Cc1ccc([N+](=O)[O-])c(C(=O)Nc2cccnc2Cl)c1
  cell number change: -3.08%
[1]
  AC50: 0.116 µM [falling, full curve, poor fit]

## O=C(Nc1nccs1)c1ccc2c(c1)C(=O)N(Cc1cccnc1)C2=O
  cell number change: -14%
[1]
  AC50: 18.4 µM [falling, partial curve]

## O=C(CSc1nnc2scc(-c3ccccc3)n12)NCc1ccco1
  cell number change: 14.8%
[2]
  AC50: 7.31 µM [rising, partial curve, poor fit]

## CCn1cc(S(=O)(=O)Nc2ncccn2)cn1
  cell number change: 2.7%
[1]
  AC50: 2.06 µM [rising, partial curve]

## O=C(Nc1ccc(S(=O)(=O)Nc2ccccc2)cc1)c1ccc(CN2CCOCC2)cc1
  cell number change: -20.8%
[1]
  AC50: 29.1 µM [falling, single point]

## O=C(N/N=C/c1ccccc1F)c1cccc(NC(=O)c2ccccc2Cl)c1
  cell number change: -6.35%
[1]
  AC50: 6.51 µM [falling, single point]

## Cc1c(C(=O)C(=O)N2CCN(Cc3ccc4c(c3)OCO4)CC2)c2ccccc2n1C
[2]
  AC50: 6.51 µM [falling, single point]

## O=C(N/N=C/c1cccc(Oc2ccc([N+](=O)[O-])cc2[N+](=O)[O-])c1)c1cncc(Br)c1
[1]
  AC50: 0.103 µM [falling, full curve, poor fit]

## O=C(Nc1ccccc1Sc1ccccc1)C1CCCO1 (configuration not stated)
  cell number change: -93.5%
[2]
  AC50: 16.4 µM [falling, partial curve, poor fit]
[1]
  AC50: 0.231 µM [falling, full curve]

## COc1ccc(NC(=O)c2cccnc2)cc1OCC(C)C
  cell number change: 4.56%

## CSc1ccc(/C=C(/NC(=O)c2ccc(C)cc2)C(=O)Nc2cccc(C)c2)cc1
  cell number change: -0.616%
[1]
  AC50: 2.06 µM [falling, partial curve]

## O=C(CN1CCN(Cc2ccc(Cl)cc2)C1=O)NCCCN1CCN(c2ccc(F)cc2)CC1
  cell number change: 46.3%
[2]
  AC50: 18.4 µM [rising, single point]
[1]
  AC50: 18.4 µM [rising, partial curve]

## COC(=O)c1ccc(/C=C2/SC(=S)N(CCC(=O)NCCCN3CCOCC3)C2=O)cc1
  cell number change: 19.2%
[1]
  AC50: 3.26 µM [falling, full curve, poor fit]

## Cn1c(N)c(C(=O)COC(=O)CCCN2C(=O)c3ccccc3C2=O)c(=O)n(C)c1=O
  cell number change: -30.5%
[2]
  AC50: 0.0326 µM [falling, full curve]
[1]
  AC50: 0.00517 µM [falling, full curve, poor fit]

## COc1ccccc1Oc1ccc(S(=O)(=O)N2CCCCC2C)cc1 (configuration not stated)
  cell number change: -14.3%
[1]
  AC50: 29.1 µM [falling, single point]

## O=C(CCN1C(=O)/C(=C/c2ccccc2Cl)SC1=S)NCCCN1CCOCC1
  cell number change: -14.6%
[1]
  AC50: 0.58 µM [rising, single point]

## CC(C)Oc1cccc(C(=O)Nc2ccc(NC(=O)c3ccco3)cc2)c1
[2]
  AC50: 4.61 µM [rising, single point]

## COC(=O)c1ccccc1NS(=O)(=O)c1cn(C)c(=O)n(C)c1=O
[2]
  AC50: 2.06 µM [rising, partial curve]

## CSCCC(NC(=O)COc1ccccc1)C(=O)OCC(=O)c1cc2ccccc2o1 (configuration not stated)
[1]
  AC50: 0.58 µM [falling, single point]

## CC(C)CCN1CC(C(=O)NCCC2=CCCCC2)CC1=O (configuration not stated)
  cell number change: -10.6%
[1]
  AC50: 2.06 µM [falling, partial curve, poor fit]

## CS(=O)(=O)N(CC(=O)Nc1ccccc1C(=O)NCc1ccco1)c1ccccc1F
  cell number change: -18.8%
[1]
  AC50: 0.00461 µM [falling, full curve, poor fit]

## O=C(Cn1nc(CNc2ccc(Cl)cc2)[n+]2c1CCCCC2)c1ccc(Br)cc1
  cell number change: -71.6%
[2]
  AC50: 20.6 µM [falling, single point]

## CCCN(CCC)CCNS(=O)(=O)c1ccc2c(c1)oc(=O)n2C
  cell number change: -148%

## O=C(N/N=C/C=C/c1ccccc1)C1CC1(c1ccccc1)c1ccccc1 (configuration not stated)
[1]
  AC50: 29.1 µM [rising, single point]

## CN(CCOc1ccc(Cl)cc1)C(=O)CN1C(=O)NC2(CCCCC2)C1=O
  cell number change: 35.3%
[2]
  AC50: 29.1 µM [rising, single point]

## CCC1(C)CC(C(N)=S)CCO1 (configuration not stated)
  cell number change: -40.4%
[2]
  AC50: 0.82 µM [falling, full curve, poor fit]
[1]
  AC50: 0.651 µM [falling, full curve]

## Cc1nn(S(=O)(=O)c2ccc(Cl)cc2)c(C)c1S(=O)(=O)N1CCOCC1
  cell number change: 21%
[1]
  AC50: 0.164 µM [falling, full curve, poor fit]

## COc1ccccc1N1CCN(CCCC(=O)c2ccc(F)cc2)CC1
  cell number change: 11.6%
[2]
  AC50: 0.651 µM [falling, single point]
[1]
  AC50: 3.66 µM [falling, single point]

## COC(=O)Cn1c(C)nc2c(sc3nc(C)cc(C)c32)c1=O
[2]
  AC50: 0.517 µM [rising, full curve]
[1]
  AC50: 0.58 µM [rising, full curve]

## COc1cc(NC(=S)Nc2ccccn2)cc(OC)c1
  cell number change: 2.67%
[1]
  AC50: 6.51 µM [rising, single point]

## CCn1c(C)nc2cc(C(=O)NNC(=O)CCC3CCCC3)ccc21
  cell number change: 1.26%
[1]
  AC50: 0.517 µM [rising, partial curve, poor fit]

## COc1cccc2c(Cl)c(CCCl)c(C)nc12
  cell number change: -74.2%
[2]
  AC50: 29.1 µM [falling, single point]
[1]
  AC50: 9.2 µM [rising, partial curve]

## Cc1ccccc1C(OCC(O)CN1CCN(CCO)CC1)c1ccccc1 (configuration not stated)
  cell number change: -2.78%

## O=C(/C(N=Nc1cccc(C(F)(F)F)c1)=C(/O)c1cccs1)C(F)(F)F
  cell number change: -55.6%
[2]
  AC50: 29.1 µM [falling, single point]

## Brc1ccc(C2=CSC3=NCCN23)cc1
[2]
  AC50: 6.51 µM [falling, single point]
[1]
  AC50: 6.51 µM [falling, single point]

## CCC(=O)N(CCC(c1ccco1)c1ccccc1OC)Cc1cccs1 (configuration not stated)
[2]
  AC50: 0.82 µM [falling, full curve, poor fit]

## O=S(=O)(c1cc(F)ccc1F)N1CCC2(CC1)OCCN2S(=O)(=O)c1ccccc1
  cell number change: 40.2%
[2]
  AC50: 16.4 µM [rising, partial curve]
[1]
  AC50: 14.6 µM [rising, partial curve]

## CO/N=C/C(NC(=O)c1ccc(C(F)(F)F)cc1)C(=O)OC (configuration not stated)
  cell number change: 41.7%
[1]
  AC50: 1.46 µM [falling, partial curve]

## CCCCC(=O)Nc1nnc(SCC(=O)NCC2CCCO2)s1 (configuration not stated)
  cell number change: -15.9%
[1]
  AC50: 0.13 µM [falling, full curve, poor fit]

## Cc1cnc(C)c(N2CCC(C(=O)NC(C)c3cccs3)CC2)n1 (configuration not stated)
  cell number change: 9.25%

## COc1ccccc1NS(=O)(=O)c1cccc(NC(=O)C2CC(=O)N(Cc3ccccc3)C2)c1 (configuration not stated)
  cell number change: -5.91%
[2]
  AC50: 0.00651 µM [rising, full curve, poor fit]
[1]
  AC50: 0.184 µM [rising, partial curve, poor fit]

## Cc1cc(OCC(=O)OCC(=O)N(C)Cc2ccccc2C)ccc1Cl
  cell number change: 15.4%
[1]
  AC50: 29.1 µM [rising, single point]

## COC(=O)c1ccc(COc2ccc(C=O)cc2OC)o1
  cell number change: 5.64%
[1]
  AC50: 1.3 µM [falling, full curve, poor fit]

## O=C(NCc1nnc(SCc2ccc(F)cc2)n1-c1ccccc1)C12CC3CC(CC(C3)C1)C2
  cell number change: -36.8%
[2]
  AC50: 23.1 µM [falling, single point]
[1]
  AC50: 13 µM [falling, single point]

## Cc1cccc(Nc2nc(C)nc3c2oc2ccccc23)c1
  cell number change: -1.39%

## Cc1noc(C)c1COc1cccc(C(=O)Nc2cccnc2)c1
  cell number change: -35.5%
[2]
  AC50: 18.4 µM [falling, single point]

## O=C(N/N=C/c1ccc(-c2cccc([N+](=O)[O-])c2)o1)c1cccs1
  cell number change: 44%
[2]
  AC50: 5.8 µM [rising, partial curve, poor fit]
[1]
  AC50: 0.206 µM [rising, full curve]

## COc1ccc(/C=N/NC(=O)C2(C)NC(C)(C)Cc3ccccc32)cc1 (configuration not stated)
  cell number change: -5.71%
[1]
  AC50: 0.0058 µM [falling, full curve, poor fit]

## COc1cccc(/C=N/Nc2ccc([N+](=O)[O-])cc2)c1O
  cell number change: 52.8%
[2]
  AC50: 20.6 µM [rising, single point]
